Experimental data taken from publication PMC4749557.
These are yes or no findings as the source states them, for the method shown. Binding seen in cells or lysates may run through a third protein. These calls come from enrichment with a bait or labelling near it, and not all partners need be listed. For part of these data: Sequences can lack the tags named with a protein.

T1: endogenous Prdm14 of wt mESCs (mouse (endogenous in mESCs)) (UniProt E9Q3T6)
T1 sequence: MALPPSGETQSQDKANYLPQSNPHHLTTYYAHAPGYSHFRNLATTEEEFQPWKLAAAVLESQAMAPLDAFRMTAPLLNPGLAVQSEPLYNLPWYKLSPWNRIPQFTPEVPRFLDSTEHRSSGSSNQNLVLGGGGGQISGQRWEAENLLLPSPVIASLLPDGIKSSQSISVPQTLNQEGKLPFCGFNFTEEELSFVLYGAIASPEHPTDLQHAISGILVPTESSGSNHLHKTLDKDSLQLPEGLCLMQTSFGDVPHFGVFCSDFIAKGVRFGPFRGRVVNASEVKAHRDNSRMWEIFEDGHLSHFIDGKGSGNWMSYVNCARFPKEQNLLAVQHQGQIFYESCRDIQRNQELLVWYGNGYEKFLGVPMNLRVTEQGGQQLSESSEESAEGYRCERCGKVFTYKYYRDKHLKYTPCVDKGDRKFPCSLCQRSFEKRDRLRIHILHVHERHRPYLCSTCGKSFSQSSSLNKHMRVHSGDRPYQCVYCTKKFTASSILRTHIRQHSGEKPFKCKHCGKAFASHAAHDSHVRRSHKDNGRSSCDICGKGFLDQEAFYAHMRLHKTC

T2: FLAG–HA tagged Prdm14 (FH-Prdm14), stably expressed in mESCs (mouse) (UniProt E9Q3T6)
T2 sequence: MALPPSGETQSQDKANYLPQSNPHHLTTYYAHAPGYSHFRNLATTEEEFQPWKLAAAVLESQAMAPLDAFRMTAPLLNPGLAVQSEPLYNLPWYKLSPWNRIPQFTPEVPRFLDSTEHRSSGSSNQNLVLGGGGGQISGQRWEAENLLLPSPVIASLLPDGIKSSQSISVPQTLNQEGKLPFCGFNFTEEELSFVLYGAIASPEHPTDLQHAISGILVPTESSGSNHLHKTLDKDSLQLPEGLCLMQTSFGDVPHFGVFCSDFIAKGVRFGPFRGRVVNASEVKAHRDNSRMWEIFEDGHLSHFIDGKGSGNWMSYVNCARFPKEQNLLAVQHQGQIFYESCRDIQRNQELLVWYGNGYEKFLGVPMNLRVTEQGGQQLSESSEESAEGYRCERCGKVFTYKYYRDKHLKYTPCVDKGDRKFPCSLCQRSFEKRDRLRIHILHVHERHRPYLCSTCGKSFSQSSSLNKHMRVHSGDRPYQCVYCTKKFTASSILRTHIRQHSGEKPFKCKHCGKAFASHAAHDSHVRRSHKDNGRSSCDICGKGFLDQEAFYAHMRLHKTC

B1: Mtgr1 (myeloid translocation gene related 1), endogenous in mESCs (protein, UniProt O70374 1-594)
chain: MVGVPGAAAFQLGCEKRVPAMPGSPVEVKIQSRSSPPIMPPLPPINPGGPRPVSFTPTALSNGINHSPPTLNGAPSPPQRFSNGPASSTSSALTNQQLPATCGARQLSKLKRFLTTLQQFGNDISPEIGEKVRTLVLALVNSTVTIEEFHCKLQEATNFPLRPFVIPFLKANLPLLQRELLHCARAAKQTPSQYLAQHEHLLLNTSIASPADSSELLMEVHGNGKRPSPERRDENNFERDTVPPEPPAKRVCTISPAPRHSPALTVPLMNPGGQFHPTPPPLQHYTLEDIATSHLYREPNKMLEHREVRERHHNLSLNGGYQDELVDHRLTEREWADEWKHLDHALNCIMEMVEKTRRSMAVLRRCQESDREELNYWKRRFNENTELRKTGTELVSRQHSPGSTDSLSNDSQREFTSRPATGYVPVEFWKKTEEAVNKVKIQAMSEVQKAVAEAEQKAFEVIATERARMEQTIADVKRQAAEDAFLVINEQEESTENCWNCGRKASETCSGCNIARYCGSFCQHKDWERHHRLCGQSLHGHSPHSQSRPLLPGGRGSARSADCSVPSPALDKTSATTSRSSTPASVTAIDANGL
B2: Mtg8, endogenous in mESCs (protein, UniProt Q61909 1-577)
chain: MPDRTEKHSTMPDSPVDVKTQSRLTPPAMPPPPTTQGAPRTSSFTPTTLTNGTSHSPTALNGAPSPPNGFSNGPSSSSSSSLANQQLPPACGARQLSKLKRFLTTLQQFGNDISPEIGERVRTLVLGLVNSTLTIEEFHSKLQEATNFPLRPFVIPFLKANLPLLQRELLHCARLAKQNPAQYLAQHEQLLLDASTTSPVDSSELLLDVNENGKRRTPDRTKENGFDREPLHSEHPSKRPCTISPGQRYSPNNGLSYQPNGLPHPTPPPPQHYRLDDMAIAHHYRDSYRHPSHRDLRDRNRPMGLHGTRQEEMIDHRLTDREWAEEWKHLDHLLNCIMDMVEKTRRSLTVLRRCQEADREELNYWIRRYSDAEDLKKGGSSSSSHSRQQSPVNPDPVALDAHREFLHRPASGYVPEEIWKKAEEAVNEVKRQAMTELQKAVSEAERKAHDMITTERAKMERTVAEAKRQAAEDALAVINQQEDSSESCWNCGRKASETCSGCNTARYCGSFCQHKDWEKHHHICGQTLQAPQQGDTPAVSSSVTPSSGAGSPMDTPPAATPRSTTPGTPSTIETTPR
B3: Mtg16, endogenous in mESCs (protein, UniProt O54972 1-620)
chain: MSQASTTTLESGALLSGPRGLQYGSPAHRKEKAAAMPDSPAEVKTQPRSTPPSMPPPPPTSSQGATRPPSFTPHTHGEDGPATSLPHGRFHGCLKWSMVCLLMNGSSHSPTAIHGAPSTPNGFSNGPATSSTASLSTQHLPPACGARQLSKLKRFLTTLQQFGSDISPEIGERVRTLVLGLVNSTLTIEEFHAKLQEATNFPLRPFVIPFLKANLPLLQRELLHCARLAKQTPAQYLAQHEQLLLDASATSPVDSSELLLEVNENGKRRTPDRTKENGSDRDPLHPDHLSKRSCTLSPAQRCSPSNGLPHPTPPPPPHYRLEDMAMAHHFRDSYRHPDPRELRERHRPLAIPGSRQEEVIDHRLTEREWAEEWKHLNSLLNCIMDMVEKTRRSLTVLRRCQEADREELNHWIRCYSDSEEGKKGPTPISARSLNSCSGPEGSQLDVHRDFTPRTLSGYMPEEIWRKAEEAVNEVKRQAMSELQKAVSDAERKAHELITTERAKMERALAEAKRQASEDALTVINQQEDSSESCWNCGRKASETCSGCNAARYCGSFCQHKDWEKHHHVCGQSLQGPAAAVADPLPGQPDATASPSEAGSAGPSRPCSPGPPGPLDAAVPR
B4: Tbl1, endogenous in mESCs (protein, UniProt Q9QXE7 1-527)
chain: MSITSDEVNFLVYRYLQESGFSHSAFTFGIESHISQSNINGTLVPPAALISILQKGLQYVEAEISINEDGTVFDGRPIESLSLIDAVMPDVVQTRQQAFREKLAQQQANAAAAAAAAAATATSTAATTPAAAAQQNPPKNGEATVNGEENGAHAINNHSKPMEIDGDVEIPPSKATVLRGHESEVFICAWNPVSDLLASGSGDSTARIWNLNENSNGGSTQLVLRHCIREGGHDVPSNKDVTSLDWNSDGTLLATGSYDGFARIWTEDGNLASTLGQHKGPIFALKWNKKGNYILSAGVDKTTIIWDAHTGEAKQQFPFHSAPALDVDWQNNTTFASCSTDMCIHVCRLGCDRPVKTFQGHTNEVNAIKWDPSGMLLASCSDDMTLKIWSMKQDACVHDLQAHSKEIYTIKWSPTGPATSNPNSNIMLASASFDSTVRLWDVERGVCIHTLTKHQEPVYSVAFSPDGKYLASGSFDKCVHIWNTQSGSLVHSYRGTGGIFEVCWNARGDKVGASASDGSVCVLDLRK
B5: Tblr1, endogenous in mESCs (protein, UniProt Q8BHJ5 1-514)
chain: MSISSDEVNFLVYRYLQESGFSHSAFTFGIESHISQSNINGALVPPAALISIIQKGLQYVEAEVSINEDGTLFDGRPIESLSLIDAVMPDVVQTRQQAYRDKLAQQHAAAAAAAAAATNQQGSAKNGENTANGEENGAHTIANNHTDMMEVDGDVEIPSNKAVVLRGHESEVFICAWNPVSDLLASGSGDSTARIWNLSENSTSGPTQLVLRHCIREGGQDVPSNKDVTSLDWNSEGTLLATGSYDGFARIWTKDGNLASTLGQHKGPIFALKWNKKGNFILSAGVDKTTIIWDAHTGEAKQQFPFHSAPALDVDWQSNNTFASCSTDMCIHVCKLGQDRPIKTFQGHTNEVNAIKWDPTGNLLASCSDDMTLKIWSMKQDNCVHDLQAHNKEIYTIKWSPTGPGTNNPNANLMLASASFDSTVRLWDVDRGICIHTLTKHQEPVYSVAFSPDGRYLASGSFDKCVHIWNTQTGALVHSYRGTGGIFEVCWNAAGDKVGASASDGSVCVLDLRK

Biological target: T1, endogenous Prdm14 of wt mESCs (mouse (endogenous in mESCs))
Assay: affinity purification with mass spectrometry; proteins recovered with endogenous Prdm14 captured by Mb(S4) from wt mESC extracts; mass spectrometry

binding, binds:
B1

Biological target: T2, FLAG–HA tagged Prdm14 (FH-Prdm14), stably expressed in mESCs (mouse)
Assay: affinity purification with mass spectrometry; two-step immunopurification (FLAG M2 beads with peptide elution, then HA antibody) from FH-Prdm14 mESC nuclear extracts, wt mESCs as control; SDS-PAGE, silver stain, mass spectrometry

binding, binds:
B1
B2
B3
B4
B5
